PubChem BioAssay AID1259289 – Sanger Institute, 2017
In all, the deposit lists 794 reagents; below is a random part of them. 16 of all reagents (2%) count as active. 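Active marks cell loss from silencing alone; drug synergy shows only in the synergy scores, not the calls.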 Entries without a mark were called inactive. Not all columns of the deposit are shown. The record does not give: the amount of reagent, the time to read-out.

Screen: 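Kinase-wide silencing tested with three anchor drugs to reveal synergistic lethal pairs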 (primary screen)
System: human LS513 colorectal cancer cells
Reagents: siRNA pool against human genes
Treatment: anchor drug BYL719 at 1 µM, cetuximab at 5 µg/ml or trametinib at 10 nM, or DMSO vehicle alone; exposure time not given
Read-out: 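Cell survival as a fraction of the non-targeting pool, replicate means; robust z-score for silencing alone under DMSO; synergy score for each of BYL719, cetuximab and trametinib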
Reading the numbers: robust z-score, siRNA alone (DMSO): higher = more viable cells; strongly negative means essential
Rule for the call: 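Called essential when silencing alone under DMSO gives a robust z-score below -3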
Calls: active = essential (knock-down alone); inactive = not essential

{"Target gene": "TLK2 (GeneID 11011)", "robust z-score, siRNA alone (DMSO)": 0.561}
{"Target gene": "STK32C (GeneID 282974)", "robust z-score, siRNA alone (DMSO)": 0.561}
{"Target gene": "PIKFYVE (GeneID 200576)", "robust z-score, siRNA alone (DMSO)": 0.561}
{"Target gene": "MECOM (GeneID 2122)", "robust z-score, siRNA alone (DMSO)": 0.561}
{"Target gene": "CDKL4 (GeneID 344387)", "robust z-score, siRNA alone (DMSO)": 0.352}
{"Target gene": "PPP2R1A (GeneID 5518)", "robust z-score, siRNA alone (DMSO)": 0.561}
{"Target gene": "MAP3K19 (GeneID 80122)", "robust z-score, siRNA alone (DMSO)": -0.597}
{"Target gene": "MAPK13 (GeneID 5603)", "robust z-score, siRNA alone (DMSO)": 0.561}
{"Target gene": "FXR1 (GeneID 8087)", "robust z-score, siRNA alone (DMSO)": 0.561}
{"Target gene": "PKIB (GeneID 5570)", "robust z-score, siRNA alone (DMSO)": 0.561}
{"Target gene": "PRAG1 (GeneID 157285)", "robust z-score, siRNA alone (DMSO)": -2.77}
{"Target gene": "ATM (GeneID 472)", "robust z-score, siRNA alone (DMSO)": 0.225}
{"Target gene": "LMTK3 (GeneID 114783)", "robust z-score, siRNA alone (DMSO)": 0.561}
{"Target gene": "FLT4 (GeneID 2324)", "robust z-score, siRNA alone (DMSO)": 0.181}
{"Target gene": "DAPK1 (GeneID 1612)", "robust z-score, siRNA alone (DMSO)": -1.54}
{"Target gene": "PKMYT1 (GeneID 9088)", "robust z-score, siRNA alone (DMSO)": 0.561}
{"Target gene": "SCYL3 (GeneID 57147)", "robust z-score, siRNA alone (DMSO)": 0.561}
{"Target gene": "CAMK1D (GeneID 57118)", "robust z-score, siRNA alone (DMSO)": 0.561}
{"Target gene": "TBX3 (GeneID 6926)", "robust z-score, siRNA alone (DMSO)": 0.561}
{"Target gene": "GATA3 (GeneID 2625)", "robust z-score, siRNA alone (DMSO)": -1.02}
{"Target gene": "VRK3 (GeneID 51231)", "robust z-score, siRNA alone (DMSO)": 0.561}
{"Target gene": "NME5 (GeneID 8382)", "robust z-score, siRNA alone (DMSO)": 0.561}
{"Target gene": "MAP2K2 (GeneID 5605)", "robust z-score, siRNA alone (DMSO)": 0.561}
{"Target gene": "CSNK1G3 (GeneID 1456)", "robust z-score, siRNA alone (DMSO)": 0.561}
{"Target gene": "CDK18 (GeneID 5129)", "robust z-score, siRNA alone (DMSO)": "-3.27 (active)"}
{"Target gene": "EPHA1 (GeneID 2041)", "robust z-score, siRNA alone (DMSO)": 0.469}
{"Target gene": "ACO1 (GeneID 48)", "robust z-score, siRNA alone (DMSO)": -0.385}
{"Target gene": "CSNK2A2 (GeneID 1459)", "robust z-score, siRNA alone (DMSO)": 0.561}

Active calls (from the list above):
{"Target gene": "CDK18 (GeneID 5129)", "robust z-score, siRNA alone (DMSO)": "-3.27 (active)"}
